The nature of the test: qHTS Assay for Lipid Storage Modulators in Drosophila S3 Cells.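 On cell number change: cells counted by Cell Tracker Red CMTPX staining in the red channel.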 The following applies: BODIPY lipid droplet fluorescence, 18-24 h; for cell number change: measured here: cell count max response, cells fed with added oleic acid. The procedure, abridged:
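Drosophila S3 cells loaded with oleic acid (400 uM, as added) and compounds at several concentrations; lipid droplets imaged by 488-nm laser-scanning cytometry, 500–530 nm intensity and object ratio to cell channel. Percent activity normalized to 20 uM Triacsin C.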

The mark [1] stands for this setting: measured here: lipid fluorescence (Fed channel) AC50, cells fed with added oleic acid.
Where [2] appears, read: measured here: cell number channel AC50, cells fed with added oleic acid.

Some of the results follow. Shown are side measurements of this screen, not its main read-out; they come without a call. The list favours compounds with an active or inconclusive main result. Words in brackets tell the shape of the fitted curve; partial curves, single points and poor fits give uncertain potencies.

For the compound `CCOc1ccc(N(CC)C(=O)CCNC(=O)Cn2ccc3ccccc3c2=O)cc1`, the cell number change was -7.92%. In addition, under setting [1], the AC50 was 6.51 µM [falling, single point].
Turning to `Cn1c2ccccc2c2c(C(=O)O)cn(C3CCCC3)c(=O)c21`, the cell number change was determined as 37.7%. Further, the AC50 under setting [2] is 29.1 µM [rising, single point]. Further, the AC50 under setting [1] is 5.8 µM [falling, single point].
Consider `Cc1ccc(C)c(NC(=O)C2CCN(C(=O)c3cccs3)CC2)c1`, for which the cell number change amounted to 19.8%. In addition, the half-maximal activity concentration (AC50) under setting [1] is 6.51 µM [rising, single point].
`Cc1ccc(NC(=O)C/C(N)=N/OC(=O)Nc2cccc(C)c2)cc1`: the cell number change worked out at 8.46%. The AC50 under setting [1] is 0.651 µM [rising, full curve, poor fit].
`COc1ccc(CSc2nnc(-c3ccncc3)n2C)cc1F`: the cell number change amounted to 22.5%.
As to `NC(=O)CSc1nc2cccnc2n1-c1ccc(F)cc1`, the cell number change was -12.1%.
As to `COc1cc(C(=O)OCC(=O)NC2CCCC2)cc(NC(=O)c2ccco2)c1OC`, the cell number change is -8.31%. In addition, under setting [2], the AC50 was 0.13 µM [falling, full curve, poor fit].
On to `CN(C)C(=O)c1nc2ccc(Cl)cn2c1CN1CCN(c2ncccn2)CC1`, for which the cell number change was determined as 4.3%. Under setting [1], the AC50 is 9.2 µM [rising, partial curve, poor fit].
Consider `Cc1ccccc1OCC(=O)Nc1sc(C(=O)Nc2cccc(C)c2C)c(C)c1C#N`, for which the cell number change amounted to 8.89%. In addition, the AC50 under setting [1] was 16.4 µM [rising, single point].
On to `N#Cc1nc(-c2ccc(F)cc2)oc1NCc1cccc2c1OCO2`, for which the cell number change turned out to be 1.99%.
On to `CCOC(=O)C1(Cc2ccc(OC)cc2)CCN(C(=O)CN2CCCCC2=O)CC1`, for which the cell number change amounted to 5.1%. The AC50 under setting [1] was 0.164 µM [rising, full curve, poor fit].
Regarding `O=C(Nc1sc2c(c1-c1nc3ccccc3[nH]1)CCCC2)C1CCCC1`, the cell number change is -1.85%. Under setting [1], the AC50 was 29.1 µM [rising, single point].
As to `Cc1[nH]c(C)c(S(=O)(=O)N2CCN(c3cccc(C(F)(F)F)c3)CC2)c1C(=O)N1CCCCC1`, the cell number change was -11.2%.
`CC(=O)N1c2ccccc2NC2=C(C(=O)CCC2)C1c1ccco1` (centres undefined): the AC50 under setting [1] was 0.231 µM [falling, full curve, poor fit].
With `Cc1ccc(S(=O)(=O)N(C)c2ccc(OC(C)C(=O)N3CCCC3)cc2)cc1C` (centres undefined), the cell number change was determined as 22.6%. Under setting [1], the AC50 is 29.1 µM [rising, single point].
`COc1ccccc1-n1c2nc3ccccc3nc2c2c(=O)n(-c3cc(C)cc(C)c3)cnc21`: the cell number change was -1.69%. Besides, under setting [1], the AC50 is 1.46 µM [rising, full curve, poor fit].
In the case of `Cc1ccc(CN(Cc2ccco2)C(=O)c2ccco2)cc1`, the cell number change was determined as 141%. Also, the AC50 under setting [2] was 29.1 µM [rising, single point]. Also, the AC50 under setting [1] was 29.1 µM [falling, single point].
For the compound `O=C(CN1C(=O)/C(=C/c2ccco2)SC1=S)Nc1ccc(C(=O)O)c(O)c1`, the AC50 under setting [1] was 25.9 µM [falling, single point].
Take `Cc1ccc(/C=C2/SC(=S)N(c3ccc(S(=O)(=O)Nc4nccs4)cc3)C2=O)cc1`: the cell number change is -68.9%. For the same compound, the AC50 under setting [2] is 20.6 µM [falling, single point]. In addition, the AC50 under setting [1] is 29.1 µM [falling, partial curve].
As for `O=C(/C=C/c1ccccc1)c1ccc2c3c(cccc13)CC2`, the cell number change was -13.6%.
Take `c1c(C2CCCCC2)n[nH]c1CN1CCCCC1`: the cell number change was -13.7%. Further, the AC50 under setting [1] is 0.517 µM [falling, full curve, poor fit].
Take `COc1ccc(-c2cc(C(=O)N(C)Cc3ccccc3F)c3ccccc3n2)cc1OC`: the cell number change was -9.73%. The half-maximal activity concentration (AC50) under setting [1] was 4.11 µM [falling, single point].
Consider `CCOC(=O)N1CCC(=NNc2ncc(C(F)(F)F)cc2Cl)CC1`, for which the cell number change was determined as 56.6%. Further, under setting [2], the AC50 is 0.82 µM [rising, full curve, poor fit].
For `C/C(=N\NC(=O)c1ccc(Cn2cc(Br)cn2)o1)c1cccc(NC(=O)C(C)C)c1`, the cell number change amounted to 23.6%. Moreover, under setting [1], the AC50 is 0.058 µM [rising, full curve, poor fit].
Regarding `CCn1nc(C)c(CNC(=O)C2CCC(=O)N(CCc3ccc(Cl)cc3)C2)c1C` (centres undefined), the cell number change amounted to 14.7%.
In the case of `CCCCN(C(=O)C(C)Oc1cccc(Cl)c1)c1c(N)n(CCC)c(=O)[nH]c1=O` (centres undefined), the cell number change is -7.36%.
Turning to `Cc1ccc(S(=O)(=O)N2CCN(CC(=O)N/N=C/c3ccccc3OCC(=O)O)CC2)cc1`, the cell number change was 39.4%. Moreover, the AC50 under setting [2] was 16.4 µM [rising, single point]. In addition, under setting [1], the AC50 is 23.1 µM [rising, single point].
Take `Fc1ccc(CNc2ccc(N3CCN(Cc4ccccc4)CC3)cc2)cc1`: the concentration at half-maximal activity (AC50) under setting [1] was 0.00461 µM [rising, full curve, poor fit].
For `Cc1cc(SCCOc2ccccc2)nc(N)n1`, the cell number change is -29.3%. Further, the AC50 under setting [2] was 0.00517 µM [falling, full curve, poor fit].
For the compound `CCN(CC)C1=N/C(=C\c2ccc(OC)cc2)C(=O)N1c1ccccc1`, the cell number change is 30.3%. Also, the half-maximal activity concentration (AC50) under setting [2] is 5.8 µM [rising, partial curve]. Further, the AC50 under setting [1] was 1.46 µM [rising, partial curve].
For the compound `Cc1ccc(S(=O)(=O)C2(C(=O)N3CCN(c4ccccc4F)CC3)CC2)cc1`, the AC50 under setting [1] is 0.631 µM [falling, full curve].
With `O=C(CCC(=O)N1CCOc2ccccc21)NCCCN1CCCCC1`, the cell number change turned out to be 16.7%. The AC50 under setting [2] was 3.26 µM [rising, single point].
Consider `CC1CCc2sc(C(=O)NNS(=O)(=O)c3ccc(F)c(F)c3F)cc2C1` (centres undefined), for which the cell number change was -25.3%.
Take `O=S1(=O)N=C(Nc2ccc(N3CCOCC3)c(Cl)c2)c2ccccc21`: the AC50 under setting [1] is 29.1 µM [falling, single point].
`O=C(CCc1nnc(Cc2c[nH]c3ccccc23)o1)NCC1CC12CCCCC2` (centres undefined): the cell number change was -36.9%. The AC50 under setting [2] is 10.3 µM [falling, partial curve, poor fit]. Further, under setting [1], the AC50 is 0.259 µM [falling, full curve].
Regarding `Cc1ccc(-c2ncccc2OC(=O)C23CC4CC(CC(C4)C2)C3)cc1`, the cell number change is -38.4%. In addition, the AC50 under setting [2] is 10.3 µM [falling, partial curve].
For `Cc1ccc2c(c1)N(S(=O)(=O)c1cc(-c3cc(C)no3)ccc1C)CCO2`, the cell number change stood at 21.1%. For the same compound, under setting [2], the AC50 is 0.00411 µM [rising, full curve, poor fit].
On to `CC1CCC2(CC1)NC(=O)N(CC(=O)NC(C)c1ccc(F)c(F)c1)C2=O` (centres undefined), for which the cell number change turned out to be 5.07%. The AC50 under setting [2] is 6.51 µM [falling, single point]. The AC50 under setting [1] was 2.91 µM [falling, single point].
`COc1ccc(C2(c3ccc(OC)cc3)NC(=O)NC2=O)cc1`: the cell number change was -26.7%.
On to `CCN(CC(=O)NCc1ccc(F)cc1)C(=O)c1ccc(C(=O)c2ccccc2)cc1`, for which the cell number change was found to be 28.6%. Besides, the AC50 under setting [1] is 29.1 µM [falling, partial curve].
For the compound `CC(C)(C)CC(C)(C)NC1=CC(=O)OC12CCCCC2`, the cell number change stood at 2.09%.
Consider `COc1cc2c(c3oc(=O)cc(CC(=O)O)c13)CCC(C)(C)O2`, for which the cell number change was found to be 31.9%. Besides, the AC50 under setting [2] was 32.6 µM [rising, single point]. Under setting [1], the concentration at half-maximal activity (AC50) was 29.1 µM [rising, single point].
With `Cc1cc(C)n2nc(Nc3ccccc3)cc2n1`, the cell number change is -12.3%. The AC50 under setting [2] is 0.206 µM [rising, full curve, poor fit].
Consider `COc1cccc(/C=N/NC(=O)CCn2cnc3ccccc32)c1`, for which the cell number change was found to be 14.1%.
`COc1c(O)cc2c(c1O)[C@@H]1O[C@H](CO)[C@@H](O)[C@H](O)C1OC2=O` (some centres undefined): the cell number change was -48.3%. Further, the AC50 under setting [2] was 29.1 µM [falling, single point]. Also, the AC50 under setting [1] is 29.1 µM [falling, single point].
Turning to `CCOC(=O)c1ccc(N2C(=O)C3CC=C(C)CC3C2=O)cc1` (centres undefined), the cell number change amounted to 12.3%. The AC50 under setting [1] was 32.6 µM [rising, partial curve].
As to `CCOC(=O)c1cc(C)n(CCCN2CCOCC2)c1C`, the cell number change was -0.989%. Moreover, the AC50 under setting [2] was 0.58 µM [falling, single point].
Regarding `CCCCS(=O)(=O)N1CCCC(C(=O)Nc2ccc3c(c2)CCC3)C1` (centres undefined), the cell number change stood at 16.4%.
Consider `O=C(Nc1ccc(O)c(-c2nc3ccccc3s2)c1)c1cc(=O)c2ccccc2o1`, for which the cell number change was -8.11%. Moreover, the AC50 under setting [2] was 6.51 µM [falling, single point].
`CCCc1[nH]nc2c1C(c1ccc(OC(=O)N3CCOCC3)c(OC)c1)C(C#N)=C(N)O2` (centres undefined): the AC50 is, setting by setting: under setting [2], 3.26 µM [rising, single point]; under setting [1], 4.11 µM [rising, partial curve, poor fit].
Consider `Cc1ccc(NC(=O)C2=C(O)CCn3c2nc2ccccc23)cc1`, for which the cell number change was 0.925%. Besides, the AC50 under setting [1] was 0.146 µM [rising, full curve, poor fit].
`COc1ccccc1N1CCN(C(=O)CCc2nnc3ccc(N4CCOCC4)nn23)CC1`: the cell number change worked out at 2.67%.
On the same count and under the same terms, for `Cc1cc(C)c(C#N)c(SCC(=O)c2cccs2)n1` the value was 14.5%.
For the compound `COC(=O)c1ccccc1NC(=S)N(Cc1ccc2c(c1)OCO2)Cc1cc2ccc(C)cc2[nH]c1=O`, the cell number change is -11.7%. Moreover, under setting [1], the AC50 is 1.16 µM [rising, full curve].
As for `CN(C)CCCNc1nc(N)c([N+](=O)[O-])c(NC2CCCCC2)n1`, the cell number change is -47.9%. Moreover, the AC50 under setting [2] is 7.31 µM [falling, single point]. For the same compound, the AC50 under setting [1] is 6.51 µM [rising, single point].
For the compound `CCC(C)(C)NC(=O)c1ccc2c(c1)OCCO2`, the cell number change amounted to 59.3%.
Turning to `COc1ccc(C(=O)N2CCN(Cc3cc(OC)c(O)c(OC)c3)CC2)cc1OC`, the cell number change amounted to 8.18%. In addition, under setting [1], the AC50 was 0.291 µM [rising, full curve, poor fit].
In the case of `CSc1ccc(C#N)cc1NC(=O)c1ccc(Cl)nc1`, the cell number change was -13.4%. Also, the AC50 under setting [2] is 0.103 µM [falling, full curve, poor fit].
Take `COc1ccc(CNC(=O)c2c(C)cc(=O)oc2C)cc1`: the cell number change amounted to 61.1%. For the same compound, under setting [2], the AC50 was 16.4 µM [rising, single point].
Take `Cc1cccc(NC(=O)COC(=O)c2cccc(S(=O)(=O)N3CCCCCC3)c2)c1`: the cell number change is -8.46%. Also, under setting [1], the AC50 was 4.11 µM [falling, single point].
On to `CCNc1oc(COc2ccccc2F)nc1C#N`, for which the cell number change was determined as 13%. Besides, the concentration at half-maximal activity (AC50) under setting [1] is 1.84 µM [rising, full curve, poor fit].
Regarding `COc1ccccc1-c1cc2nc(C)c(CCC(=O)NC(C)CCc3ccco3)c(C)n2n1` (centres undefined), the AC50 is, setting by setting: under setting [2], 5.8 µM [rising, single point]; under setting [1], 6.51 µM [rising, single point].

By AC50 is commonly meant the concentration giving half of the maximal activity seen.

Values taken from PubChem BioAssay AID2685 (National Center for Advancing Translational Sciences (NCATS), 2010).
